Here are results for one molecule from publication PMC4740771, “Nucleotide-dependent assembly of the peroxisomal receptor export complex” (Scientific Reports, 2016).

The target of test [1] is T1, HisPex1p(D797N) released from its GST fusion (S. cerevisiae) (UniProt P24004).
T1 sequence: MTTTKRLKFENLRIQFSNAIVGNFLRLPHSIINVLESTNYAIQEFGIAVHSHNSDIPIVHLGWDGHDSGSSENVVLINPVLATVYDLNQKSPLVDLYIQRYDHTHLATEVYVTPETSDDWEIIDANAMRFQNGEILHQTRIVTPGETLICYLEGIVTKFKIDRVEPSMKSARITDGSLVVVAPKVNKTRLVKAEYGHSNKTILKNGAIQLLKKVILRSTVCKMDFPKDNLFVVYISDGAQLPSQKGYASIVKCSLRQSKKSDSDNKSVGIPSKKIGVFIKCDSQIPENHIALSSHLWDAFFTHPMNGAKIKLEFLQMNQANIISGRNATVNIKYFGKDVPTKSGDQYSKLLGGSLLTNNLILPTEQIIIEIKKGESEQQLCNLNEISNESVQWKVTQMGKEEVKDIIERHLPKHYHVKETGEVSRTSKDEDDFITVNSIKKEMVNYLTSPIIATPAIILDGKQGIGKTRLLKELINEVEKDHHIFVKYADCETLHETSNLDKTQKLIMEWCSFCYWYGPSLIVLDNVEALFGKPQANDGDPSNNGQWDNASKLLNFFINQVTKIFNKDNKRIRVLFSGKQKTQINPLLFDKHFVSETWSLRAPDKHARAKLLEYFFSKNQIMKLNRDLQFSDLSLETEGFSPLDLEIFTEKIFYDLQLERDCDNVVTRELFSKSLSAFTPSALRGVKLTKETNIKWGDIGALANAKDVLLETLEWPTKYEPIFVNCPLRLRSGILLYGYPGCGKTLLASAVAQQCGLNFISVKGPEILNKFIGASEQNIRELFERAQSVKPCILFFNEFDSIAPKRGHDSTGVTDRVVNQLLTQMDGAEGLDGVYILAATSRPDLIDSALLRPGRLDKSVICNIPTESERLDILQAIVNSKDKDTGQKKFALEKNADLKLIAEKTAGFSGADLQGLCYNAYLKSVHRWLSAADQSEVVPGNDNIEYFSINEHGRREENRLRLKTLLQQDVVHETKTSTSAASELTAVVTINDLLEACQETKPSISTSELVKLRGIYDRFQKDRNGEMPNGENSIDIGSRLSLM
Description: SEC; complexes of wild-type or Walker B mutant Pex1p with Pex6p purified by tandem affinity chromatography and size exclusion chromatography; nucleotide not stated for this experiment; both purified. A general note: SEC sorts molecules by how far they enter the pores of the column.

In test [2] the target is T2, HisPex1p(E798Q) released from its GST fusion (S. cerevisiae) (UniProt P24004).
T2 sequence: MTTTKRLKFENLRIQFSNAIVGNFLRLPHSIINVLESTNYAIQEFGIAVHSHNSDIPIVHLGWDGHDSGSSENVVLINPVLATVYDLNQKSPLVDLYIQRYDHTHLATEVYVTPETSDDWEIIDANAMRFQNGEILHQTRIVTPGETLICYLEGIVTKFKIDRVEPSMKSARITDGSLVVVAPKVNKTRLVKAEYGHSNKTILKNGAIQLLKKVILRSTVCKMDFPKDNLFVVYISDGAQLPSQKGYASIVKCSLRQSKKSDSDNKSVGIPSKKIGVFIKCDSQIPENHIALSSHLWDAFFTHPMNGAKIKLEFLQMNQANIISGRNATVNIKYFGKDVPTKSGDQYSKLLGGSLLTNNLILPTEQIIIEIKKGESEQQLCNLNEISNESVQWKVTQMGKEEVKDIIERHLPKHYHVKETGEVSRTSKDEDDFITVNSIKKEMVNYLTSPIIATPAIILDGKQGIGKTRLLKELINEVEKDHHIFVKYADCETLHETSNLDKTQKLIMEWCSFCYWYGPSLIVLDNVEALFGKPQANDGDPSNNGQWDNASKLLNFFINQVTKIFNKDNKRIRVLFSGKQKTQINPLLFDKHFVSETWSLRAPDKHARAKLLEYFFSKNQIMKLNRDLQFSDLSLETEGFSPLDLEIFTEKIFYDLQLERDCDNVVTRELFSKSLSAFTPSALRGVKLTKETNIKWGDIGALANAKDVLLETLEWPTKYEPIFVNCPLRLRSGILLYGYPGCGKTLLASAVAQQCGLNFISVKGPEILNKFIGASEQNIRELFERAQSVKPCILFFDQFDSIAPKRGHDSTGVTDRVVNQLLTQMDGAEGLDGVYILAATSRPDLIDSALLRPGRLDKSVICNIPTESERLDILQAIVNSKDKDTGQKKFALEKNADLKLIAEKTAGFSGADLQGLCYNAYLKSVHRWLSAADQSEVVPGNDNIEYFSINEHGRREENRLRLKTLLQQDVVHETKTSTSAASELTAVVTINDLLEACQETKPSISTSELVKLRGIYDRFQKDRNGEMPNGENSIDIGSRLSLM
The test is described as above.

These are yes or no findings as the source states them, for the method shown. Some entries that bind do so weakly or less than the wild type. Where a sequence is shown, tags or fusion partners need not be part of it.

B1: HisPex6p (natural protein, S. cerevisiae, UniProt P33760 1-1030, looked up)
chain: MKASLTFSLSGIYAPCSISRDIYLEYGDKKAECLYGTIRLPQYGPGCTPGKIVHCVLDDSLPFCSIVVPSKLFGFMPTQPTMDFCYFEPILDNVVPVLDSVTFLINEQLYSKLMDLPQEMQQIQFLHYKYNINSMETVVHSRDILTSGLCQILNCSPFPQGLVDFTETQLILVNDTEQKLSALKYANEDEEYALPKIGTNSALSIDLESLPCTISRDLLRPAPHINDDNSIYAFTDAETLLRLDVTSGSFITVSNMGCVRLVKLFVLLLPNGFKKRTIYAPPKIIASFPDCSVVTISKSNIGHTDIPIANQVFISRVGGWLQSQKCFQNIILTTLKKFFSESKRILCQNDLIPIAFDSSMADLNIAEENDESDDEDELGQYYKNDSLVWFFVTSAELDCFSKDNSHFIIDPNRTKLITTNITNRRPLPLSRSNLQRYYGFAETFYYDLHIFPYVRQLVNILETSFNCSQRGITLNASVLLHSTTNNVGKATMVRFASKYLGIHLLEIDCLSLTSNSRQLDSTSKIIGYIRAKCENVLPYASPAVIFLAHLDSILLDVNANQDPEAIKLQKSINFEMSKLLDDFTFKFPGTTFVGSVNNIDNVPSSFRSHMRFEILVPVPSEAQRLRIFQWYLSSHELNRDVQQKVPVSYMDNISFSSLSSYSAGLTPLDIKSIVETARMTATARFYQESKKCGWLPQSILITQEDLSKATSKARNEFSVSIGAPQIPNVTWDDIGGIDFVKGEILDTIDMPLKHPELFTSGMKKRSGILFYGPPGTGKTLMAKAIATNFSLNFFSVKGPELLNMYIGESEANVRRVFQKAREAKPCVIFFDEIDSVAPKRGNQGDSGGVMDRIVSQLLAELDGMSTDADGVFVIGATNRPDLLDEALLRPGRFDKLLYLGIPDTDTKQLNILEALTRKFVLDNDVKLIELAKLCPFNYTGADFYALCSDAMLNAMSRIARMVEKKVSQHNELTGENISTRRWFDKIATKEDTKVVVKMEDFLKAQEQLTPSVSRAELNHYEAVRANFEGA
notes: Pex6p, type II AAA-ATPase peroxin of yeast; also called single Pex6p; isolated Pex6p; source: E. coli Tuner (DE3), purified (NiNTA-agarose; with HisPex1pGST also GSH-agarose and size exclusion); not shown: His6, N-terminal, kept
Consider B1, for which the binding entry in test [1] and in test [2] was “binds” each time.
